Laboratory results as given in the supplement of paper PMC4683952.
Counter-ions that a name gives are not always drawn. About 50 (4%) of roughly 1,200 compounds showed activity. Rule as the data show it: all actives reach 1.3 or more but so do some inactives. Some of the results follow.

These compounds were tested on Lgr5 (MarsCy1-Lgr5-EGFP, U2OS) (assay: cell-surface Lgr5 expression (SCi1 fluorescence, background-subtracted) relative to WT DMSO (fold of DMSO control); higher = more Lgr5 at the plasma membrane, active = hit call of the paper). Details: U2OS MarsCy1-Lgr5-EGFP stable; treatment time: overnight; 16 µM; library: Johns Hopkins Clinical Compound Library.

cell-surface Lgr5 expression, inactive:
COc1ccc(C[C@H](N)C(=O)N[C@H]2[C@@H](O)[C@H](n3cnc4c(N(C)C)ncnc43)O[C@@H]2CO)cc1 [Puromycin] 0.253
NC(=O)OCC(COC(N)=O)c1ccccc1 [Felbamate] 0.551
CCC[S+]([O-])c1ccc2[nH]c(NC(=O)OC)nc2c1 (stereo not given) [Ricobendazole (Albendazole oxide)] 1.07
Cc1ccnc(NS(=O)(=O)c2ccc(N)cc2)n1 [Sulfamerazine] 0.989
CC(C)n1c(/C=C/C(O)CC(O)CC(=O)O)c(-c2ccc(F)cc2)c2ccccc21 (stereo not given) [Fluvastatin sodium salt] 0.891
N.N.O=S(=O)(O)O [Ammonium sulfate] 0.987
Cc1cc(O)c(C(C)C)cc1Cl [Chlorothymol (4-Chloro-2-isopropyl-5-methylphenol)] 1.16
CCCCC(CC)COS(=O)(=O)O (stereo not given) [Sodium ethasulfate (Sodium-2-ethylhexyl sulfate)] 0.836
CN1C(=O)OC(C)(C)C1=O [Trimethadione (3,5,5,trimethyloxazol-idine,2,4 dione)] 0.85
CCCC(CCC)C(=O)O[C@H]1C[C@H]2CC[C@@H](C1)[N+]2(C)C [Anisotropine methylbromide] 1.18
NCCNCCNCCN [Trientine (Triethylenetetramine)] 0.888
O=C(CCc1ccc(O)cc1)c1c(O)cc(O)cc1O[C@@H]1OC(CO)[C@@H](O)[C@@H](O)C1O (stereo not given in full) [Phloridzin] 0.896
COc1c(C)c2c(c(O)c1C/C=C(\C)CCC(=O)O)C(=O)OC2 [Mycophenolic acid] 0.89
NS(=O)(=O)c1cc(Cl)c(Cl)c(S(N)(=O)=O)c1 [Dichlorophenamide] 0.698
Nc1ccc(C(=O)O)cc1 [4-Aminobenzoic acid, sodium salt,99%] 0.905
CCCCCC(=O)O[C@]1(C(C)=O)CC[C@H]2[C@@H]3CCC4=CC(=O)CC[C@]4(C)[C@H]3CC[C@@]21C 1.11
CCCCCC(=O)O[C@]1(C(C)=O)CC[C@H]2[C@@H]3CCC4=CC(=O)CC[C@]4(C)[C@H]3CC[C@@]21C [Progesterone caproate (17alpha-hydroxyprogesterone)] 1.05
O=C(O[C@@H]1Cc2c(O)cc(O)cc2O[C@@H]1c1ccc(O)c(O)c1)c1cc(O)c(O)c(O)c1 [Epicatechin gallate (-)] 1.14
Cc1coc2c1C(=O)C(=O)c1c-2ccc2c1CCCC2(C)C [Tanshinone IIA] 0.863
O=C1C(CC[S+]([O-])c2ccccc2)C(=O)N(c2ccccc2)N1c1ccccc1 (racemic) [Sulfinpyrazone (+-)] 1.1
CC(=O)O[C@H]1C[C@@H]2CC[C@@H]3[C@H](CC[C@@]4(C)[C@H]3C[C@H]([N+]3(C)CCCCC3)[C@@H]4OC(C)=O)[C@@]2(C)C[C@@H]1N1CCCCC1 [Vecuronium bromide] 0.878
C#C[C@]1(O)CC[C@H]2[C@@H]3CCc4cc(O)ccc4[C@H]3CC[C@@]21C [Ethinyl Estradiol (17α-Ethynylestradiol)] 0.851
COc1ncnc(NS(=O)(=O)c2ccc(N)cc2)c1OC [Sulfadoxine] 0.843
O=C(Oc1ccccc1)c1ccccc1O [Phenyl salicylate] 1.11
COc1c(N2C[C@@H]3CCCN[C@@H]3C2)c(F)cc2c(=O)c(C(=O)O)cn(C3CC3)c12 [Moxifloxacin HCl] 0.895
Nc1nc2c(ncn2COCCO)c(=O)[nH]1 [Acyclovir (Acycloguanosine)] 1.38
CCCCCN(CCCCC)C(=O)C(CCC(=O)O)NC(=O)c1ccc(Cl)c(Cl)c1 (stereo not given) [Lorglumide sodium salt] 1.05
CCCCCN(CCCCC)C(=O)C(CCC(=O)O)NC(=O)c1ccc(Cl)c(Cl)c1 (stereo not given) [Lorglumide] 1.13
COc1ccc2[nH]c([S@@+]([O-])Cc3ncc(C)c(OC)c3C)nc2c1 [Esomeprazole] 0.751
CCCCC(CC)COC(=O)C=Cc1ccc(OC)cc1 (stereo not given) 0.676
Cc1c(C2(c3cc(C(C)C)c(O)c(Br)c3C)OS(=O)(=O)c3ccccc32)cc(C(C)C)c(O)c1Br [Bromthymol blue, sodium salt] 1.16
O=NN(CCCl)C(=O)NCCCl [Carmustine] 1.24
CCOC(=O)c1ncn2c1CN(C)C(=O)c1cc(F)ccc1-2 [Flumazenil] 1.12
CC(=O)Nc1ccc(/C=N/NC(N)=S)cc1 [Thiacetazone (Amithiozone)] 1.19
N[C@@H](CSCC(=O)O)C(=O)O [Carbocysteine (S-carboxymethyl-L-cysteine)] 0.812
CC(C(=O)O)c1cccc(C(=O)c2ccccc2)c1 (stereo not given) [Ketoprofen] 0.899
CC(C)(C)C(=O)C(Oc1ccc(Cl)cc1)n1ccnc1 (stereo not given) [Climbazole] 1.04
NCCCC(N)(C(=O)O)C(F)F (racemic) [Eflornithine hydrochloride] 0.627
NCCCC(N)(C(=O)O)C(F)F (racemic) 1.18
O=C1CN(/N=C/c2ccc([N+](=O)[O-])o2)C(=O)N1 [Nitrofurantoin] 0.908
CC1=C(CC(=O)O)c2cc(F)ccc2/C1=C\c1ccc(S(C)(=O)=O)cc1 [Sulindac sulfone] 0.73
CC(=O)[C@@]1(O)CC[C@H]2[C@@H]3C[C@H](C)C4=CC(=O)CC[C@]4(C)[C@H]3CC[C@@]21C [6α-Methyl-17α-hydroxy-progesterone (Medroxyprogesterone)] 1.45
C[C@H](N)[C@H](O)c1cccc(O)c1 [Metaraminol] 1.19
CC1(C)S[C@@H]2[C@H](NC(=O)C(C(=O)O)c3ccccc3)C(=O)N2[C@H]1C(=O)O (stereo not given in full) [Carbenicillin] 0.933
CC1(O)CCC(C(C)(C)O)CC1 (stereo not given) [Terpin (p-Menthane-1,8-diol monohydrate)] 1.11
CC1(C)S[C@@H]2[C@H](NC(=O)[C@H](C(=O)O)c3ccsc3)C(=O)N2[C@H]1C(=O)O [Ticarcillin] 1.09
NC[C@H]1O[C@H](O[C@H]2[C@H](O)[C@@H](O[C@H]3O[C@H](CO)[C@@H](O)[C@H](N)[C@H]3O)[C@H](N)C[C@@H]2N)[C@H](O)[C@@H](O)[C@@H]1O [Kanamycin] 0.785
CCNC(=O)CCC/C=C\C[C@@H]1[C@@H](/C=C/[C@@H](O)CCc2ccccc2)[C@H](O)C[C@@H]1O [Bimatoprost] 1.06
OCC(O)CO [Glycerin (Glycerol)] 0.986
CCN(CC)C(=S)SSC(=S)N(CC)CC [Disulfiram (Tetraethylthiuram disulfide)] 0.923
[Br-].[K+] [Potassium bromide] 0.93
C/C(=C(\CCOP(=O)(O)O)SC(=O)c1ccccc1)N(C=O)Cc1cnc(C)nc1N [Benfotiamine (S-Benzoylthiamine O-monophosphate)] 0.96
CCCn1c(=O)[nH]c(=O)c2nc[nH]c21 [Enprofylline (3-Propylxanthine)] 1.26
CN1CC(O)C2=C/C(=N/NC(N)=O)C(=O)C=C21 (stereo not given) [Carbazochrome (Adrenochrome semicarbazone)] 1.16
NC(N)=NCC(=O)O [Glycocyamine (Guanidoacetic acid)] 1.17
C[C@H](CCC(=O)O)[C@H]1CC[C@H]2[C@@H]3[C@@H](O)C[C@@H]4C[C@H](O)CC[C@]4(C)[C@H]3CC[C@]12C [Ursodiol (Ursodeoxycholic acid)] 0.801
Nc1c2ccccc2nc2ccccc12 [Aminacrine (9-Aminoacridine)] 0.26
Cc1ccc(=O)n(-c2ccccc2)c1 [Pirfenidone] 0.859
Cc1c(-c2cnccn2)ssc1=S [Oltipraz] 0.909
C[C@@H]1C[C@H]2[C@@H]3CCC4=CC(=O)C=C[C@]4(C)[C@@]3(F)[C@@H](O)C[C@]2(C)[C@@]1(O)C(=O)COP(=O)(O)O 1.26

2 entries drawn at random from those above:
cell-surface Lgr5 expression, inactive:
CCN(CC)C(=S)SSC(=S)N(CC)CC [Disulfiram (Tetraethylthiuram disulfide)] 0.923
NCCNCCNCCN [Trientine (Triethylenetetramine)] 0.888

Next part.

cell-surface Lgr5 expression, active:
CNCCCC12CCC(c3ccccc31)c1ccccc12 [Maprotiline] 1.32
CC1(C)O[C@@H]2C[C@H]3[C@@H]4CCC5=CC(=O)CC[C@]5(C)[C@@]4(F)[C@@H](O)C[C@]3(C)[C@]2(C(=O)CCl)O1 [Halcinonide] 1.71
O=C[C@H](O)[C@@H](O)[C@H](O)[C@H](O)C(=O)[O-].[Na+] [Sodium glucuronate (D-Glucuronic acid)] 1.32
CC1(C)O[C@@H]2C[C@H]3[C@@H]4CCC5=CC(=O)C=C[C@]5(C)[C@H]4[C@@H](O)C[C@]3(C)[C@]2(C(=O)CO)O1 1.44
CCN(CC)CCOc1ccc2c(c1)C(=O)c1cc(OCCN(CC)CC)ccc1-2 [Tilorone dihydrochloride] 1.62
